Test [1] addresses 3×HA-xlMC3R.L (Xenopus laevis melanocortin-3 receptor, L subgenome copy) (Xenopus laevis). The test can be described thus: co-IP; HEK293T cells co-transfected with 3×HA-xlMC3Rs and 2×Flag-xlMRAPs; lysate incubated with HA-tag rabbit mAb overnight at 4°C, protein A/G agarose beads; blot with anti-FLAG and anti-HA.
Test [2] concerns the target xlMC3R.L with VF1 (part of Venus) at the C-terminus (Xenopus laevis). Description: split reporter; bimolecular fluorescence complementation of split Venus (VF1 on xlMC3Rs, VF2 on xlMRAPs) in transfected HEK293T cells, fixed 24 h after transfection, confocal microscopy.

By UniProt entry, the sequences of proteins in these tests, tags left out. Where a name states a change or a piece, a line headed by the entry shows the natural chain unless it says otherwise. Chains listed by the source or under a name are the forms on record and can include a tag or linker.
xlMRAP2.L with N-terminal VF2 (part of Venus) and C-terminal 2×Flag (A0A1L8G9N8, form named): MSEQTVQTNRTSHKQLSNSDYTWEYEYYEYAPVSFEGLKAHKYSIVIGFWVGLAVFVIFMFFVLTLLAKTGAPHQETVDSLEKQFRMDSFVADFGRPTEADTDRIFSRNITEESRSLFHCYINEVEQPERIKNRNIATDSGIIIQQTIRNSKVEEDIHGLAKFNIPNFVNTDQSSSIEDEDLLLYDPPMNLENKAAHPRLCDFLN
xlMRAP2.S with N-terminal VF2 (part of Venus) and C-terminal 2×Flag (A0A1L8G336, form named): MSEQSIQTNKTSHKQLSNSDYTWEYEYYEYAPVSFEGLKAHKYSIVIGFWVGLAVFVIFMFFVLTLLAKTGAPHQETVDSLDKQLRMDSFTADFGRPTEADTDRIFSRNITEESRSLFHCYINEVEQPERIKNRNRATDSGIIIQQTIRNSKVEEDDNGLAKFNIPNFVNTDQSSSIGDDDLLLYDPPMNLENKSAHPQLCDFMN

Data on four substances can be found in publication PMC8630767.

These are yes or no findings as the source states them, for the method shown. Binding seen in cells or lysates may run through a third protein. Some results given as binding are weak or reduced against the parent protein; the word gives no strength.

Regarding “2×Flag-xlMRAP2.L (Xenopus laevis melanocortin receptor accessory protein 2, L subgenome copy) (from UniProt A0A1L8G9N8 1-205)”, the binding entry in test [1] is listed as “binds”.

For the substance “2×Flag-xlMRAP2.S (Xenopus laevis melanocortin receptor accessory protein 2, S subgenome copy) (from UniProt A0A1L8G336 1-205)”, the binding result in test [1] is “binds”.

As for “xlMRAP2.L with N-terminal VF2 (part of Venus) and C-terminal 2×Flag (from UniProt A0A1L8G9N8 1-205)”, in test [2], the binding entry was “binds”.

On to “xlMRAP2.S with N-terminal VF2 (part of Venus) and C-terminal 2×Flag (from UniProt A0A1L8G336 1-205)”, for which the binding entry in test [2] is listed as “binds”.
